Measurements reported in PubChem BioAssay AID1259254 (NCATS, 2017).
The whole screen tested about 59,000 reagents; shown is a random part of them. In the full data, about 1,550 (2.6%) got an active call. 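G2 share is only a proxy for re-replication; each gene was hit by three separate siRNAs, and active genes were retested.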 Entries without a mark were called inactive. Further read-outs or replicates are left out here. Not stated in the record: the amount of reagent.

- Test: 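Genome-wide screen for genes that prevent DNA re-replication in cancer cells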 (primary screen)
- Cells: human HCT116 colorectal cancer cells
- Reagent: single siRNA against human genes
- Timing: 3 days
- Measured: 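Nuclei stained with Hoechst and imaged; cell-cycle phase assigned by DNA content; G2 share scaled per plate, non-targeting siRNA 0%, GMNN siRNA 100%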
- Direction: G2 robust z-score: higher = more G2 cells, more excess DNA replication
- Call rule: 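An siRNA counts as active if its G2 robust z-score lies at least 5 MADs above the screen median; here such calls match roughly 38% of GMNN control or more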

gene knocked down	PubChem SID	G2 robust z-score
ELK4	SID160759967	0.318
ELK4	SID160759978	2.5
ELK4	SID160759989	-1.44
SARAF	SID160741195	-0.19
SARAF	SID160741197	0.715
SARAF	SID160741198	-0.492
TXN	SID160713784	5.47 (active)
TXN	SID160727558	1.84
TXN	SID160742755	-1.01
HMGA1	SID160775068	1.47
HMGA1	SID160775069	2.39
HMGA1	SID160775070	1.02
TONSL	SID160733460	-0.6
TONSL	SID160778036	6.69 (active)
TONSL	SID160778038	0.39
HOPX	SID160752362	-0.645
HOPX	SID160752363	-0.413
HOPX	SID160752364	-0.775
GLIPR1L1	SID160762476	1.08
GLIPR1L1	SID160762477	0.501
GLIPR1L1	SID160762479	0.494
CRHR1	SID160748148	0.45
CRHR1	SID160748159	2.4
CRHR1	SID160748168	-0.598
CNTFR	SID160745609	7.61 (active)
CNTFR	SID160745620	-1.35
CNTFR	SID160745630	-1.02
PLCB2	SID160714436	-0.653
PLCB2	SID160714437	-1.06
PLCB2	SID160714438	2.59
KIF21B	SID160735318	-0.203
KIF21B	SID160735319	-0.218
KIF21B	SID160735320	-0.611
PRPF38A	SID160753018	-0.368
PRPF38A	SID160753019	1.07
PRPF38A	SID160753020	-0.011
GJA3	SID160770948	-0.188
GJA3	SID160770956	-0.98
GJA3	SID160770966	0.238
SAPCD2	SID160724680	1.93
SAPCD2	SID160724682	6.28 (active)
SAPCD2	SID160753525	-0.192
EP300	SID160760554	2.89
EP300	SID160760565	0.0551
EP300	SID160760575	0.0918
CDRT15P13	SID160725570	0.432
CDRT15P13	SID160725571	1.97
CDRT15P13	SID160768670	2.24
LOC390877	SID160725283	-0.502
LOC390877	SID160733262	0.139
LOC390877	SID160766585	-0.725
IGFBP4	SID160775636	-0.188
IGFBP4	SID160775637	-0.37
IGFBP4	SID160775638	0.421
FAM8A1	SID160740814	-1.73
FAM8A1	SID160740815	0.231
FAM8A1	SID160740816	0.481
IL18RAP	SID160720854	-0.326
IL18RAP	SID160720856	-0.882
IL18RAP	SID160720857	-0.905
FCHSD1	SID160735158	-0.0623
FCHSD1	SID160753455	-0.772
FCHSD1	SID160753456	-0.898
CLMN	SID160749441	2.39
CLMN	SID160749442	-0.757
CLMN	SID160749443	-0.56
TXLNB	SID160760278	3.08
TXLNB	SID160760279	3.86
TXLNB	SID160760280	1.77
CDK2	SID160728400	-1.35
CDK2	SID160728505	-1.27
CDK2	SID160728609	-1.22
LOC644058 (retired record)	SID160733857	-0.527
LOC644058 (retired record)	SID160769083	0.358
LOC644058 (retired record)	SID160769085	1.25
PLEKHA5	SID160741762	-1.23
PLEKHA5	SID160741764	-0.15
PLEKHA5	SID160741765	-0.408
RARB	SID160715672	-0.14
RARB	SID160715673	-0.141
RARB	SID160715674	-0.205
TSSK6	SID160751581	-0.798
TSSK6	SID160751582	-0.308
TSSK6	SID160751583	-0.0748
IGLL1	SID160723879	0.861
IGLL1	SID160723880	0.246
IGLL1	SID160723881	0.155

Quoted from the listing, 11 entries:
gene knocked down	PubChem SID	G2 robust z-score
TXN	SID160713784	5.47 (active)
TXN	SID160727558	1.84
TXN	SID160742755	-1.01
HMGA1	SID160775068	1.47
HMGA1	SID160775069	2.39
HMGA1	SID160775070	1.02
TONSL	SID160733460	-0.6
TONSL	SID160778036	6.69 (active)
TONSL	SID160778038	0.39
HOPX	SID160752362	-0.645
HOPX	SID160752363	-0.413
